Construct, isoform or probe ends are uncertain for at least one entry. Where a protein sequence is shown, tags need not be part of it.

The record followed here is patent US20190010458.

This data set concerns the target T1, Etv2 (Mus musculus) (UniProt P41163).
T1 sequence (limits assumed): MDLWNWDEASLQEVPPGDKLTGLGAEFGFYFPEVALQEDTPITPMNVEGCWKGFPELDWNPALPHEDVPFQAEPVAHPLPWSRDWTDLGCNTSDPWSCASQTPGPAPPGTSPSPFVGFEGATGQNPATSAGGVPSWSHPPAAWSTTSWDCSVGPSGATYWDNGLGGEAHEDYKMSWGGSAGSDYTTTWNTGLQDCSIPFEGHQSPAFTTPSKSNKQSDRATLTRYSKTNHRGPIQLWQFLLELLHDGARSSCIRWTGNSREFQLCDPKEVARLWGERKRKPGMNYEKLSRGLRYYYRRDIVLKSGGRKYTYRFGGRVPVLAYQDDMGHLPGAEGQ
Nature of the data set: EMSA. Particulars: gel shift confirmed binding to oligo with Etv2 motif. For orientation: A gel shift assay detects complexes by their altered migration in electrophoresis.

Take “GAATATAGGCAGGAAATTGACCAGAT (double strand) [miR-130a promoter Etv2 site oligo]”: the binding result is given as “binds”.
